Experimental findings from publication PMC7819943, “Rice protein-binding microarrays: a tool to detect cis-acting elements near promoter regions in rice” are described below.

Some of the results follow.

In this experiment the target is T1, OsSMF1 (Oryza sativa, UniProt Q6ZLB0 1-436).
T1 sequence: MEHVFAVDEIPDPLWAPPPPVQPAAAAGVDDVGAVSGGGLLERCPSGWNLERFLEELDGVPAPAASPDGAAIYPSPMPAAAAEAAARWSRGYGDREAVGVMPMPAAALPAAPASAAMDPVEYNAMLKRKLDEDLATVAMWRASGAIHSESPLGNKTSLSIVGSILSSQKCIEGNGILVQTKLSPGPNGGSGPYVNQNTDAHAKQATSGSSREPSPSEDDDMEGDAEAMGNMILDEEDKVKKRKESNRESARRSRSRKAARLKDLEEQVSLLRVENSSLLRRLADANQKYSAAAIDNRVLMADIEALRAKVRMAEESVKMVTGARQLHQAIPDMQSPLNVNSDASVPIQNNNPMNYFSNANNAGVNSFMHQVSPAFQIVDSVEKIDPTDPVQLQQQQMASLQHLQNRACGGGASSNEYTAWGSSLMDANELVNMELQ
Kind of experiment: protein-binding microarray (RPBM); PBS, 2% BSA, 51.3 ng/ul salmon testes DNA, 50 uM zinc acetate, 200 nM TF, 25 C, 1 h; high values mean tight binding. Conditions: protein: recombinant; tags: N-terminal polyhistidine and DsRed monomer fusion (pET32a); chain copies: 2; label: CyDye5-dUTP incorporated in the synthesized complementary strand; 3' TTTTT single-stranded linker to array surface; dsDNA, one strand shown. The essentials:
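Per-feature fluorescence intensity (arbitrary units), read on an Axon 4000B scanner, is the binding signal. Transcription factors carrying an N-terminal polyhistidine tag and DsRed fusion were expressed in E. coli BL21-CodonPlus and purified on Ni–NTA. A custom Agilent array, made double-stranded by primer extension with Cy5-dUTP and blocked with 2% BSA, was incubated with 200 nM protein in PBS, 2% BSA, salmon testes DNA and 50 µM zinc acetate at 25 °C for 1 h and then washed.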
“CATTGAAGAGTTGGAACTACTAGTAACCTGTGCTGTCTGTCGGAGTCACCTAGTGCAG”: the binding signal is 3200 fluorescence intensity (a.u.).
The result for “AGTTAGCTGTAATTACATCATGATTGTACTGTATTTACGTCGGAGTCACCTAGTGCAG” reads 3740 fluorescence intensity (a.u.); that for “CGCCGTCCATCCCATCCACCGCCGACACGTGCTCCACTGTCGGAGTCACCTAGTGCAG”, 23500 fluorescence intensity (a.u.); that for “AGTTGCCCAACATGTGGCGTCTCAGGCACGGACACGTACTCGGAGTCACCTAGTGCAG”, 5300 fluorescence intensity (a.u.).
The result for “ATCACCTTAGTCATTGAAATATTTATTACTGAAACTTGTACGGAGTCACCTAGTGCAG” reads 3390 fluorescence intensity (a.u.); that for “ACAAATGGTCAAACGTTGGTCGAAAAGTCAACGGCGTCATCGGAGTCACCTAGTGCAG”, 4840 fluorescence intensity (a.u.); that for “ACCAGAGCACCCAGAATTTTACAGCAGCTACTGCTGCTCACGGAGTCACCTAGTGCAG”, 4050 fluorescence intensity (a.u.).
As to “TATACTTCCCTCTGACTGTAATAAACTTTTGGAGCATAGTCGGAGTCACCTAGTGCAG”, the binding signal is 3500 fluorescence intensity (a.u.).
Then “CCTATGCCGGATGAGCTACTGGCAACGACCGAAGGAGGTGCGGAGTCACCTAGTGCAG”, with 3970 fluorescence intensity (a.u.); and “TGTATAGTTTGTACCTCATGCTTCAAAATTTTGATACTAACGGAGTCACCTAGTGCAG”, with 3240 fluorescence intensity (a.u.).
Then “AGTTCTCTAGCTTGTTGCTCACTCACGCATGGCGCAAGGGCGGAGTCACCTAGTGCAG”, with 3200 fluorescence intensity (a.u.).
Take “CCCCGAACCTTATTGGGCTATGTCTGGGTCATAGATGTAGCGGAGTCACCTAGTGCAG”: the binding signal was 3180 fluorescence intensity (a.u.).
Consider “CCATCGCGTGCTAGCTCGACCACATGATGACTTGATTCCCCGGAGTCACCTAGTGCAG”, for which the binding signal was 4400 fluorescence intensity (a.u.).
Then “GAATGAATGTATTGATGACACGTCAAAACTTGAAACGGCGCGGAGTCACCTAGTGCAG”, with 15000 fluorescence intensity (a.u.); and “GAAAGTTAAAAGGACCTCGGTGACACACCCACACAATTTTCGGAGTCACCTAGTGCAG”, with 5400 fluorescence intensity (a.u.).
Then “ACGTACTGGCGTACTGCTGTCTCAGCTTGTCATGGAGATGCGGAGTCACCTAGTGCAG”, with 4220 fluorescence intensity (a.u.); and “CCGGTCACCATCGCCGTCATCACCGCGCCCCTCGATCCGACGGAGTCACCTAGTGCAG”, with 5130 fluorescence intensity (a.u.).
The result for “TTACTGGTGATATTTATTTTGACAAGTGCTTTTATTTGTACGGAGTCACCTAGTGCAG” reads 3930 fluorescence intensity (a.u.); that for “CTAACCACGCCCGCCACGTACGCCGCCTCTGGGACCCCGACGGAGTCACCTAGTGCAG”, 5440 fluorescence intensity (a.u.); that for “ATATACGATGTTGGTATATTCAGTCACGTATGAGTACTGACGGAGTCACCTAGTGCAG”, 3600 fluorescence intensity (a.u.).
For the sequence “AGTTGGTAGCAATTGATTGATTCCCCGTCACACGCACGCACGGAGTCACCTAGTGCAG”, the binding signal was 3970 fluorescence intensity (a.u.).
The result for “TGGTATAAGTTGCTGTTCAGTGTCAGGTTGGCATCCCTATCGGAGTCACCTAGTGCAG” reads 3710 fluorescence intensity (a.u.); that for “CAAGTCAACGACGCGCCTCCACATCACCGCCAAGGCCGTGCGGAGTCACCTAGTGCAG”, 5660 fluorescence intensity (a.u.).
The result for “GCCTCCTCTCGGTGTCAGCTTATCTTCCCGAGCTTCTCTGCGGAGTCACCTAGTGCAG” reads 4170 fluorescence intensity (a.u.); that for “TATGCTTCTAATCACCTCCCCGCAGCCACAACTTCATAATCGGAGTCACCTAGTGCAG”, 6060 fluorescence intensity (a.u.).
Regarding “GAAATCATGTTTATACCGTTACATATTATACAACTATTAGCGGAGTCACCTAGTGCAG”, the binding signal was 3690 fluorescence intensity (a.u.).
Then “TGCTGTAATTTTGTTCTTGAGCTGTAGCCTGTCTCTCCTGCGGAGTCACCTAGTGCAG”, with 3490 fluorescence intensity (a.u.); and “GCCGAGCCACCGCCGCAGATGCTGTGGCAGCAGGCGAGGTCGGAGTCACCTAGTGCAG”, with 3240 fluorescence intensity (a.u.).
The result for “AAGAAACGGGTGTGGTGTGAGGCGGGCAGTTTGGGTGGATCGGAGTCACCTAGTGCAG” reads 3180 fluorescence intensity (a.u.); that for “TCCTCCAAAGTAAATTCAGAGTGACGTGGTCACTAATATGCGGAGTCACCTAGTGCAG”, 11500 fluorescence intensity (a.u.).
For the sequence “AAAGGCCCAAGCCACCAGCCCACCGCAGGTACATGTCCACCGGAGTCACCTAGTGCAG”, the binding signal is 3370 fluorescence intensity (a.u.).
Regarding “TTCTTTTCCCATGGCCTCTGACTATGACATTATTTAAACACGGAGTCACCTAGTGCAG”, the binding signal was 3440 fluorescence intensity (a.u.).
Regarding “AGTATCACCCTCTACGTGGTAAGAATCGAGATATCATCTGCGGAGTCACCTAGTGCAG”, the binding signal is 3320 fluorescence intensity (a.u.).
Then “TCGCCTTGCCCTTCCCCTTGACCTCTTCGTTGACACTGCTCGGAGTCACCTAGTGCAG”, with 4310 fluorescence intensity (a.u.); and “CTATATATGTGACGCTGACGTTCCTCATCTCCCAAGCTGCCGGAGTCACCTAGTGCAG”, with 7040 fluorescence intensity (a.u.).
The result for “CGGCGGCCCTACTATTCACACCCCACGTCGGAGCTCATTGCGGAGTCACCTAGTGCAG” reads 4270 fluorescence intensity (a.u.).
Turning to “ATTGTTTAGTATTGCGTTATGTTATGTTACTTTTGATACACGGAGTCACCTAGTGCAG”, the binding signal was 14400 fluorescence intensity (a.u.).
The result for “GAATAAATAGGGGTTGATGACGTGGGTCCGGTCGCGGTTTCGGAGTCACCTAGTGCAG” reads 18500 fluorescence intensity (a.u.); that for “GATAGGTCATTATCTAGATTCAGGACGCCATGTCAGCGTGCGGAGTCACCTAGTGCAG”, 10300 fluorescence intensity (a.u.); that for “GATTTTATTCGACGTGTCAGCTGACTCAGATGGTCGGTAGCGGAGTCACCTAGTGCAG”, 39100 fluorescence intensity (a.u.).
Then “GATGCAGTGACATGCATGTCTCCATCCATGCATTCTCCAACGGAGTCACCTAGTGCAG”, with 4220 fluorescence intensity (a.u.); and “TATGGTCTCACCTGTCATACACACATTGCGTTTTGGAGTCCGGAGTCACCTAGTGCAG”, with 4780 fluorescence intensity (a.u.).
